PubChem BioAssay AID1224828, NIAID | 2016
Test: 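Find genes required for NF-kappaB p65 moving into the nucleus after LPS in mouse macrophages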 (primary screen). Cells: mouse RAW264.7 G9 macrophage reporter cells (GFP-p65, Tnf promoter-mCherry). Reagents: siRNA pool against mouse genes, 100 nM. Time to read-out: 2 days siRNA transfection, then 40 min LPS before fixation. Treatment: LPS (Salmonella minnesota R595) at 10 ng/ml. Detection: 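Microscopy ratio of nuclear to perinuclear-ring GFP-p65 signal, scaled to the plate median; gene score is the average of two replicate robust z-scores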. Reading the numbers: p65 translocation robust z-score: higher = more nuclear NF-kappaB p65 after LPS than the plate median; nuclear/cytoplasmic p65 ratio: higher = more nuclear NF-kappaB p65. Active means: 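Called active when z exceeds 3.3 or falls under -1.56 (median of Tlr4 controls), giving activity score of at least 50; no calls for control wells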. Calls: active = hit (p65 shift raised or lowered); inactive = no clear change.
Shown is an unselected part of about 17,000 reagents tested. In the full data, 762 (4.5%) are marked active. 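Active calls include both raised and lowered p65 entry, mostly lowered; wells with fewer than 50 cells lack a z-score.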 Raw values are not corrected between plates.

| Gene | p65 translocation robust z-score | nuclear/cytoplasmic p65 ratio, rep 1 | nuclear/cytoplasmic p65 ratio, rep 2 | low cell count flag | outcome |
| --- | --- | --- | --- | --- | --- |
| Nscme3l | 0.97 | 1.55 | 1.51 | enough cells to score | inactive |
| Hmces | -1.35 | 1.28 | 1.31 | enough cells to score | inactive |
| Supt4b | -2.18 | 1.09 | 0.985 | enough cells to score | active |
| Abca12 | 1.46 | 1.39 | 1.42 | enough cells to score | inactive |
| Pithd1 | 0.97 | 1.63 | 1.63 | enough cells to score | inactive |
| Atp6v0a4 | -0.02 | 1.59 | 1.63 | enough cells to score | inactive |
| Kank2 | -0.13 | 1.63 | 1.61 | enough cells to score | inactive |
| Ndnf | 1.4 | 1.5 | 1.72 | enough cells to score | inactive |
| Homez | -2.02 | 1.19 | 1.39 | enough cells to score | active |
| Galr3 | -0.04 | 1.5 | 1.39 | enough cells to score | inactive |
| Cercam | -1.34 | 1.39 | 1.43 | enough cells to score | inactive |

The list goes on (3 carried over from the part before).
| Gene | p65 translocation robust z-score | nuclear/cytoplasmic p65 ratio, rep 1 | nuclear/cytoplasmic p65 ratio, rep 2 | low cell count flag | outcome |
| --- | --- | --- | --- | --- | --- |
| Homez | -2.02 | 1.19 | 1.39 | enough cells to score | active |
| Galr3 | -0.04 | 1.5 | 1.39 | enough cells to score | inactive |
| Cercam | -1.34 | 1.39 | 1.43 | enough cells to score | inactive |
| Drap1 | -2.33 | 1.14 | 1.1 | enough cells to score | active |
| 1700018B24Rik | 0.35 | 1.36 | 1.46 | enough cells to score | inactive |
| 4932411K12Rik (retired record) | – | 1.22 | 1.23 | fewer than 50 cells per well; well left out of scoring | inactive |
| Dpp9 | – | 1.27 | 1.38 | fewer than 50 cells per well; well left out of scoring | inactive |
| Dtx4 | -1.16 | 1.34 | 1.19 | enough cells to score | inactive |
| Clec4d | -0.38 | 1.47 | 1.33 | enough cells to score | inactive |
| Sorbs1 | -0.83 | 1.45 | 1.14 | enough cells to score | inactive |
| Nek9 | -0.58 | 1.89 | 1.3 | enough cells to score | inactive |
| Seh1l | 1.25 | 1.5 | 1.69 | enough cells to score | inactive |
| Dcaf8 | 0.42 | 1.61 | 1.63 | enough cells to score | inactive |
| Adgra1 | 0.74 | 1.69 | 1.64 | enough cells to score | inactive |
| Lzts3 | -0.05 | 1.37 | 1.21 | enough cells to score | inactive |
| Cnot6 | – | 1.1 | 1.05 | fewer than 50 cells per well; well left out of scoring | inactive |
